{"source": "paper PMC11283536", "binders": {"B1": {"name": "Secretagogin (SCGN) (protein, UniProt Q91WD9 1-276)", "chain": "MDNARRKTPARLDAACFWQIWQRFDKEEKGYIRETELDAFFDHLLAKSGTEDTLMEENVQKVKEQLMTSHNVSKEGRILMKELASMFLSEDENFLLFFRLETPLDNSVEFMQIWRKYDADSSGFISAAELCNFLRDLFLHHKKNISEAELEEYTSTMMKIFDKNKDGRLDLNDLARILALQENFLLQFKMDASSTEERKRDFEKIFAHYDVSKTGALEGPEVDGFVKDMMELVQPSISGVDLDKFREILLRHCDVNKDGKIQKSELALCLGLKINP"}}, "biological_target": "T1, carbohydrate-responsive element-binding protein (ChREBP) (mouse (endogenous in MIN6)) (UniProt Q99MZ3)", "T1 sequence": "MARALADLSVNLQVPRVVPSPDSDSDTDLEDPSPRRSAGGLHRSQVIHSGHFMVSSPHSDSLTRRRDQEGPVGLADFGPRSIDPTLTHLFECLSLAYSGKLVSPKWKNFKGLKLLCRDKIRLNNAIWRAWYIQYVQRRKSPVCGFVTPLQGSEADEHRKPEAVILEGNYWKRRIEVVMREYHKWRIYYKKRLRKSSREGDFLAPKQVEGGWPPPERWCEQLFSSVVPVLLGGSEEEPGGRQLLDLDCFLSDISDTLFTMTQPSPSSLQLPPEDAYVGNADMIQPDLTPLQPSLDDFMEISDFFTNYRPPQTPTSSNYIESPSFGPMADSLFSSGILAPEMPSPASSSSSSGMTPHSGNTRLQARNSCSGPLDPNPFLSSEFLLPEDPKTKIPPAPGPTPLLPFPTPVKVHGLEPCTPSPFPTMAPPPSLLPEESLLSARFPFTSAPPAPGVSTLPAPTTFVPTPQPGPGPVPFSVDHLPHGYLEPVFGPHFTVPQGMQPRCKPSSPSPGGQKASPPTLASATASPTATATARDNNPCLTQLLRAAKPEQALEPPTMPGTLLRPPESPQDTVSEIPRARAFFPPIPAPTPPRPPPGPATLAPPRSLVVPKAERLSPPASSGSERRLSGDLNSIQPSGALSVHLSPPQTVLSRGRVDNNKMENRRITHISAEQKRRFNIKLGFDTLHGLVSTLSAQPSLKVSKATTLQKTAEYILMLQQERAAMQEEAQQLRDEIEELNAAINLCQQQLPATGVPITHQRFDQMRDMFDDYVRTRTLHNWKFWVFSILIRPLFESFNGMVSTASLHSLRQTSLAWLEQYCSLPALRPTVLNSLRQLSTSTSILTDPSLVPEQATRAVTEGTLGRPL", "test": "co-IP; MIN6 cells lysed in RIPA buffer; ChREBP antibody or SCGN antibody added overnight at 4 °C, then protein A/G beads for 3-5 h; three washes with lysis buffer; western blot; cells untreated (normal) or treated with ox-LDL", "note": "Results are given in words; binding and its absence hold for the method and conditions named. In cells and extracts the contact can be indirect. Some binding calls cover weakened binding; strength is not graded here. Tags and fused reporters may be left off the sequences shown.", "data": [{"binder": "B1", "values": [{"measurement": "binding", "value": "binds"}]}]}
